Data as given in patent US20250355001A1, “METHOD FOR DETECTING A TAU PROTEIN FRAGMENT IN A SAMPLE” (GTINVENT LIMITED, priority 2022, published 2025).

Assays:
[1] = test system: tau protein in brain homogenate of WT, L1 and L66 mice; experiment: Capture ELISA on transgenic mouse brain lysates; conditions: S1D12 mAb capture
[2] = test system: tau fragments in plasma of WT, L1 and L66 mice; experiment: Capture ELISA on transgenic mouse plasma; conditions: S1D12 mAb capture, S1G2 scAb detection
Description: Plasma samples from WT, L1, L66+/− and L66+/+ of various ages (1.5-9 months) were taken as described. Mice were terminally anaesthetized using an overdose of sodium pentobarbital and blood was collected through cardiac puncture through a Plastipak syringe pre-rinsed with heparinised saline heparin (10 U/ml) (Heparin sodium salt; Sigma-Aldrich) and transferred into a plastic vial containing lithium heparin anticoagulant (Sarstedt Ltd.) Blood samples, kept on ice for no more than 30 minutes, were centrifuged to obtain plasma at 2000× g for 5 minutes at 6° C. Plasma samples were stored at −20° C.
For mouse plasma capture ELISA, 100 μL capture mAb was coated to the bottom of a black nunc 96 well ‘maxisorp’ plate at 2.5 μg/ml and incubated for 1 hour at 37° C. After washing and blocking as normal, several known standard solutions were set up in triplicate starting at 20 ng/ml of the desired protein before double diluted in the remaining wells. Mouse samples were added to wells in duplicate with a blank in between each sample group. Line1 plasma was diluted 1:10 before addition to plate to account for its high concentration while other samples were diluted 1:2 to account for potential matrix effects. These samples were left to incubate at RT for 1 hour. HRP-conjugated secondary scAb (conjugation carried out according to manufacturer's guidelines, Abcam) was added to each well and left to incubate at RT for 1 hour. The ELISA was developed using SuperSignal ELISA Femto Substrate (Thermo Scientific) and total luminescence was read on Clariostar Plus plate reader (BMG Labtech). Tau concentrations were established using a 4-parameter fit on concentration curves generated from recombinant tau protein spiked into samples at known concentration. For WT and L66 hT40 was used as a calibrator while dGA was used for L1 calibration.

B1: CB7: human-specific N-terminal anti-tau clone, Table 10; SEQ ID NO: 364 (protein)
scFv: QVQLQESGPSLVKPSQTLSLTCTVSGFSLTNYRVGWVRQAPGKALEWVSNIRSGGTTWYNPALKSRLSITADTSKSQVSLSLSSVTTEDTAVYYCARDSSGDLYAYDYWGPGLLVTVSSEGKSSGASGESKVDDQAVLTQPSSVSRSLGQSVSMTCSGSSSNVGYGNYMAWFQQVPGSAPKLLIYGATSRASGVPDRFSGSRSGNTATLTISSLQAEDEADYYCASYDSTSGGVFGSGTRLTVLG
modifications: CB7 amino acid sequence
For B1, the “detection of tau in brain homogenate” value ([1]; CB7 scAb detection, listed as C-B7 scAb) was “hT40 tau was specifically detected in L66 samples” and the “detection of tau in brain homogenate” value ([1]; CB7 scAb detection, listed as CB7 scAb) was “can specifically detect human tau in Line66 homozygous and heterozygous samples”.

B2: S1D12 mAb: S1D12 reformatted; heavy chain SEQ ID NO: 445, light chain 446 (antibody)
heavy: QVQLQESGPSLVKPSQTLSLTCTVSGFSLNNNAVGWVRQAPGKVPESLVGCSSDGTCYYNSALKSRLDITRDTSKNQISLSLSSVTTDDAAVYYCTRGHYSIYGYDYLGTIDYWGPGLLVTVSSAKTTAPSVYPLAPVCGDTTGSSVTLGCLVKGYFPEPVTLTWNSGSLSSGVHTFPAVLQSDLYTLSSSVTVTSSTWPSQSITCNVAHPASSTKVDKKIEPRGPTIKPCPPCKCPAPNLLGGPSVFIFPPKIKDVLMISLSPIVTCVVVDVSEDDPDVQISWFVNNVEVHTAQTQTHREDYNSTLRVVSALPIQHQDWMSGKEFKCKVNNKDLPAPIERTISKPKGSVRAPQVYVLPPPEEEMTKKQVTLTCMVTDFMPEDIYVEWTNNGKTELNYKNTEPVLDSDGSYFMYSKLRVEKKNWVERNSYSCSVVHEGLHNHHTTKSFSRTPGK
light: QAVLTQPSSVSGSLGQRVSITCSGSSSNVGGGNSVGWYQHLPGSGLKTIIYDTNSRPSGVPDRFSGSRSGNTATLTINSLQAEDEGDYYCVTGDSTTHDDLVGSGTRLTVLGGQPKSSPSVTLFPPSSEELETNKATLVCTITDFYPGVVTVDWKVDGTPVTQGMETTQPSKQSNNKYMASSYLTLTARAWERHSSYSCQVTHEGHTVEKSLSRADCS
modifications: S1D12 mAB Heavy Chain; S1D12 mAB Light Chain
In the case of B2, the “detection of tau in brain homogenate” value ([1]; S1G2 scAb detection) is reported as “All four samples have similar tau levels”, the Plasma tau level ([2]; L1 5 month, dGA calibrator) is reported as 12.355 ng/mL and the Plasma tau level ([2]; L1 9 month, dGA calibrator) is reported as 13.661 ng/mL. For the same molecule, the Plasma tau level ([2]; L66+/+ 5 month) was 1.937 ng/mL, the Plasma tau level ([2]; L66+/- 5 month) was 0.567 ng/mL and the Plasma tau level ([2]; WT 5 month) was 1.947 ng/mL. It also gave a Plasma tau level ([2]; WT 9 month) of 2.177 ng/mL.

B3: S1G2: sheep-derived anti-tau core clone; scFv SEQ ID NO: 81, VH 455, VL 456 (protein)
scFv: QVQLQESGPSLVKPSQTLSLTCTVSGFSLTSNSVGWVRQAPGKAPEWVAGIDTDGEEGYNPALNSRLSITRDTSKSQVSLSLSSVTSEDTAVYYCGRSYRADGLAYGYVQAIDYWGPGLLVTVSSEGKSSGASGESKVDDQAVVTQPSSVSGSLGQRVSITCSGSFIGISSVGWFQQLPGSGLRTIIVASDGRPSGVPDRFSMSKSGNTATLTISSLQAEDEADYFCGSSDRTPYTGVFGSGTRLTVLG
modifications: S1G2 amino acid sequence
With B3 the “detection of tau in brain homogenate” value ([1]; S1G2 scAb detection) was “tau protein was detected in 50 μg of total brain protein in all four different sample types”.

B4: S1D12: sheep-derived anti-tau core clone; scFv SEQ ID NO: 32, VH 443, VL 444 (protein)
scFv: QVQLQESGPSLVKPSQTLSLTCTVSGFSLNNNAVGWVRQAPGKVPESLVGCSSDGTCYYNSALKSRLDITRDTSKNQISLSLSSVTTDDAAVYYCTRGHYSIYGYDYLGTIDYWGPGLLVTVSSEGKSSGASGESKVDDQAVLTQPSSVSGSLGQRVSITCSGSSSNVGGGNSVGWYQHLPGSGLKTIIYDTNSRPSGVPDRFSGSRSGNTATLTINSLQAEDEGDYYCVTGDSTTHDDLVGSGTRLTVLG
modifications: S1D12 amino acid sequence
In the case of B4, the Plasma tau level ([2]; L1 5 month, dGA calibrator) is reported as 12.355 ng/mL, the Plasma tau level ([2]; L1 9 month, dGA calibrator) is reported as 13.661 ng/mL and the Plasma tau level ([2]; L66+/+ 5 month) is reported as 1.937 ng/mL. For the same molecule, the Plasma tau level ([2]; L66+/- 5 month) was 0.567 ng/mL, the Plasma tau level ([2]; WT 5 month) was 1.947 ng/mL and the Plasma tau level ([2]; WT 9 month) was 2.177 ng/mL.
